The supplement of paper PMC12819154, “High-throughput peptide-centric local stability assay extends protein–ligand identification to membrane proteins, tissues and bacteria” (Nature Structural & Molecular Biology, 2025)
Some of the results follow. Small differences around the control level are noise.

Amino acid sequences for entries named in this document (tags omitted). A change or cut given only in a name is not applied to a line headed by its entry.
UniProt Q9Y2H2: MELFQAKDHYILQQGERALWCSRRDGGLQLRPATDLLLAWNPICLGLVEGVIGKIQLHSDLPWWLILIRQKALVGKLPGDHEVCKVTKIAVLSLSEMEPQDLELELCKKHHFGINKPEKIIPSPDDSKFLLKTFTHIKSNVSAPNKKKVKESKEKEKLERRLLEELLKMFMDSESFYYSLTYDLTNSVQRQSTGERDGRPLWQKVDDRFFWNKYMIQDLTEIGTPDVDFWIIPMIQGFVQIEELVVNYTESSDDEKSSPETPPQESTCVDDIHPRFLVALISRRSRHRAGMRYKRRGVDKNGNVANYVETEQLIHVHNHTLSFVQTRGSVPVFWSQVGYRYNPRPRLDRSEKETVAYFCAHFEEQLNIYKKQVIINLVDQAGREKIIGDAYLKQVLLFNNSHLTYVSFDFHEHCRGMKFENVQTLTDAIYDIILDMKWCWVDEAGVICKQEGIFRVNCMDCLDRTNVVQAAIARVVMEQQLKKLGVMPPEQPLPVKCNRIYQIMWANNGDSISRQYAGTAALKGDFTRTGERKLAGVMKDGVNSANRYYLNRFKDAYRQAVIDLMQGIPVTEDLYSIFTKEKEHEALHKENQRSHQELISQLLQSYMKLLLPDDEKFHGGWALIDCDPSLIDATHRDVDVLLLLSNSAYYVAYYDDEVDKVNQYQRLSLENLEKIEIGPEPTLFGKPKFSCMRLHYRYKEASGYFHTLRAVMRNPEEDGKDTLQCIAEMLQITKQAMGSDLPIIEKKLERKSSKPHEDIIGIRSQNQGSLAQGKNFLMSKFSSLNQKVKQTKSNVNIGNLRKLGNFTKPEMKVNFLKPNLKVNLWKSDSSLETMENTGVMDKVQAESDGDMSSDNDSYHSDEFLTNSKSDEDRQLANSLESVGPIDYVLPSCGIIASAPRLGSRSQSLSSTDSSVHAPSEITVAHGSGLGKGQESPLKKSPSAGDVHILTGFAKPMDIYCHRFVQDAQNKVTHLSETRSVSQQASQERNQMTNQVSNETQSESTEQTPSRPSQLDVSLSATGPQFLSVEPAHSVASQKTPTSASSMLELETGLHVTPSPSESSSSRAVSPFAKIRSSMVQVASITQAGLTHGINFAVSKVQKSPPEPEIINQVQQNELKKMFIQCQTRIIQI
UniProt Q9Y315: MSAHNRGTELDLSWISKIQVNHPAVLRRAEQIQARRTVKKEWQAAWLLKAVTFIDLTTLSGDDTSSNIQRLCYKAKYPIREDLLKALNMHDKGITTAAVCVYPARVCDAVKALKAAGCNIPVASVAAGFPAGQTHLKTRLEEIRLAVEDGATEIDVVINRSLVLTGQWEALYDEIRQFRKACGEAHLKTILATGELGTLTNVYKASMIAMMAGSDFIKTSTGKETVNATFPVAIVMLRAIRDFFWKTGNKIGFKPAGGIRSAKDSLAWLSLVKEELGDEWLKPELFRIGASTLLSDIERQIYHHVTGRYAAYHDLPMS
UniProt Q9ULC8: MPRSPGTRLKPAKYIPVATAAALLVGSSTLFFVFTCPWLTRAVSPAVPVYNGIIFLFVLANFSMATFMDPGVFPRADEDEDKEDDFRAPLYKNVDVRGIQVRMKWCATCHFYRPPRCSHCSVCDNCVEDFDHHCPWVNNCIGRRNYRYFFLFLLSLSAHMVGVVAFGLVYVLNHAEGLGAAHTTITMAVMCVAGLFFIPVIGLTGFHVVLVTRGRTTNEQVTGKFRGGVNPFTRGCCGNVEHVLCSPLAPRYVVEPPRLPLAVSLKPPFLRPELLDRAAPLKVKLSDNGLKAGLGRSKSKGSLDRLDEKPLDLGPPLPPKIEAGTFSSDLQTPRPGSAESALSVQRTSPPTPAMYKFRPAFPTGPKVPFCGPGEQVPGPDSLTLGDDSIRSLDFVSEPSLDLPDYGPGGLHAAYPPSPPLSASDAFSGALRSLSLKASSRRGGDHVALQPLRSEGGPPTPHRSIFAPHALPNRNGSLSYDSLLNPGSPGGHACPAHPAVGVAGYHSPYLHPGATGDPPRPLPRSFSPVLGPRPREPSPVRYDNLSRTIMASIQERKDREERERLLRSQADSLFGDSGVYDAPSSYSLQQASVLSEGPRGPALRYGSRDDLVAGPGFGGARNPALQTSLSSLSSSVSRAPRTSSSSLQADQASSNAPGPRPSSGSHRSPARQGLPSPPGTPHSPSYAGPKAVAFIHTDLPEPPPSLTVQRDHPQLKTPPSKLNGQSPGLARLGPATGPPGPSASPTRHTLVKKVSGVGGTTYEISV
UniProt Q9Y259: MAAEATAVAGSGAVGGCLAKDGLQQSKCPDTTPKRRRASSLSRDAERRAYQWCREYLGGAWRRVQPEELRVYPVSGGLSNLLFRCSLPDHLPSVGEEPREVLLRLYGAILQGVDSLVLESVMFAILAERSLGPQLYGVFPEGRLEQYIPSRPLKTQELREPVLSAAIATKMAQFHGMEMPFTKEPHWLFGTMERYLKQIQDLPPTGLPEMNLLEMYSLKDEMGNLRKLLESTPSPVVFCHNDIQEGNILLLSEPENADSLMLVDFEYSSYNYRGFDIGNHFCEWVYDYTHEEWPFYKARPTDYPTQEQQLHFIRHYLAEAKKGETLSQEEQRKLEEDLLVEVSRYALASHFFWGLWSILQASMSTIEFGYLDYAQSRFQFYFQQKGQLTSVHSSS
UniProt Q9ULE0, whole entry: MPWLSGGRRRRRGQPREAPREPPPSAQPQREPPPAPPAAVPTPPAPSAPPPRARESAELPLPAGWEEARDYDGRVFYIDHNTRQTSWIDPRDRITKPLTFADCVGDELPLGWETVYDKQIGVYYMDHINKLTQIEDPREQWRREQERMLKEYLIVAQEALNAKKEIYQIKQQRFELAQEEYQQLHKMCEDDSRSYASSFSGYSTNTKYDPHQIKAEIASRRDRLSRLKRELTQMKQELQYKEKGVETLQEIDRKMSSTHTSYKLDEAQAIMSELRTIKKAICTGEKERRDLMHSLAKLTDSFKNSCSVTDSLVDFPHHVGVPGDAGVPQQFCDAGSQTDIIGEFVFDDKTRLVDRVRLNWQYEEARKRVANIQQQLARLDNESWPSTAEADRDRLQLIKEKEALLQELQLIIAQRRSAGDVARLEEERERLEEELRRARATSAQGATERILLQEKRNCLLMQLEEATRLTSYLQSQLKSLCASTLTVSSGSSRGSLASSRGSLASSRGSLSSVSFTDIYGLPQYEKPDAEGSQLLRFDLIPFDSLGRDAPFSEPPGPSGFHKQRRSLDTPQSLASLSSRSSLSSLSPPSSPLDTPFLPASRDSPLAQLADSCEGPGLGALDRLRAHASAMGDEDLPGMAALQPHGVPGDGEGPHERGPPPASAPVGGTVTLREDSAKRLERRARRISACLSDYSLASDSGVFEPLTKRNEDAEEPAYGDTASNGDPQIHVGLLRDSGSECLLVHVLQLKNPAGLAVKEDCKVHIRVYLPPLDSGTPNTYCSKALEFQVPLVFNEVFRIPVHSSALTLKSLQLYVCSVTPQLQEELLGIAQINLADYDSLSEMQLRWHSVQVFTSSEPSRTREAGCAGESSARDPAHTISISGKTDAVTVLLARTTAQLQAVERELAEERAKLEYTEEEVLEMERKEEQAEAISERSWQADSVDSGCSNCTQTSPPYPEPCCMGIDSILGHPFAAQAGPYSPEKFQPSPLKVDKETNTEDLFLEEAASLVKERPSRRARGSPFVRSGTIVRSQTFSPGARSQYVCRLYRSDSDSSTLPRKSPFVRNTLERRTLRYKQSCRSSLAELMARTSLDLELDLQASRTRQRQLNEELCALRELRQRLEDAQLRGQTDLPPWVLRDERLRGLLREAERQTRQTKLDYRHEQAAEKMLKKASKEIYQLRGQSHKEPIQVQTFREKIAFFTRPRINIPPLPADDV
UniProt Q9UPV0, whole entry, looked up: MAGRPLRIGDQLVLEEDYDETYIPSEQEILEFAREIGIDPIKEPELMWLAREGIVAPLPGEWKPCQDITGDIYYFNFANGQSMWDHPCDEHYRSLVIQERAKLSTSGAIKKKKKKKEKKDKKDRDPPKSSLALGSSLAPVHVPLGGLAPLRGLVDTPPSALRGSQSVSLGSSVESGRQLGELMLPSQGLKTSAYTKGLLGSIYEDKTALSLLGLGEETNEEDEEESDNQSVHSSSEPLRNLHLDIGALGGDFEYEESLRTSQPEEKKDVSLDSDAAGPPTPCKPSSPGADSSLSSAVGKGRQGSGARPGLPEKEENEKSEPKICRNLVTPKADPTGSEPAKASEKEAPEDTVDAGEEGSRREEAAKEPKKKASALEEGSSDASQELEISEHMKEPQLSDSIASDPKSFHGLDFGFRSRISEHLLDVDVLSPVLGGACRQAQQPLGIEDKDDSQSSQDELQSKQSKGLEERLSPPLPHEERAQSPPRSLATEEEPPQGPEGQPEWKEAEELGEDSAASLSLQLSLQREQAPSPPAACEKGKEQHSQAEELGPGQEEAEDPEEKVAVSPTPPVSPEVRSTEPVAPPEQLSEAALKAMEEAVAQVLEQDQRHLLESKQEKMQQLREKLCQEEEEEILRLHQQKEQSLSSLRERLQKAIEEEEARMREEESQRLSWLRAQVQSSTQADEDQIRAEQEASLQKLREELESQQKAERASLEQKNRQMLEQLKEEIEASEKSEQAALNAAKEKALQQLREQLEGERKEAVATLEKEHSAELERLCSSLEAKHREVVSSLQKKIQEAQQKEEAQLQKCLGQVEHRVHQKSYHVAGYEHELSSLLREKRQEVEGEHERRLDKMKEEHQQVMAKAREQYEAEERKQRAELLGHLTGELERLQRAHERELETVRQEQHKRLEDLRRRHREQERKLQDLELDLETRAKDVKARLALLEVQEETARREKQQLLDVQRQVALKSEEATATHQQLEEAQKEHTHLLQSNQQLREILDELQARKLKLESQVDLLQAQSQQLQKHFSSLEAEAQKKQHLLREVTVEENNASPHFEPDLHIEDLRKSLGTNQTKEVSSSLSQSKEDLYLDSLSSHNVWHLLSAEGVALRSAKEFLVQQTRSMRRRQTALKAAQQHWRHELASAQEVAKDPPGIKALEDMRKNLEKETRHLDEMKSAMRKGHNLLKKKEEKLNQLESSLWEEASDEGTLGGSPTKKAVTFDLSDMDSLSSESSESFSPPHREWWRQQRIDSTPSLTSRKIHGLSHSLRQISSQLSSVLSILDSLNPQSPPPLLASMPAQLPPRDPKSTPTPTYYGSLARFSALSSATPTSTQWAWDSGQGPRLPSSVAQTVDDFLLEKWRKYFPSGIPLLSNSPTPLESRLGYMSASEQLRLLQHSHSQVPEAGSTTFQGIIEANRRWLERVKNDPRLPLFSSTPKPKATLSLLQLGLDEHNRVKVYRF
UniProt Q9UN86: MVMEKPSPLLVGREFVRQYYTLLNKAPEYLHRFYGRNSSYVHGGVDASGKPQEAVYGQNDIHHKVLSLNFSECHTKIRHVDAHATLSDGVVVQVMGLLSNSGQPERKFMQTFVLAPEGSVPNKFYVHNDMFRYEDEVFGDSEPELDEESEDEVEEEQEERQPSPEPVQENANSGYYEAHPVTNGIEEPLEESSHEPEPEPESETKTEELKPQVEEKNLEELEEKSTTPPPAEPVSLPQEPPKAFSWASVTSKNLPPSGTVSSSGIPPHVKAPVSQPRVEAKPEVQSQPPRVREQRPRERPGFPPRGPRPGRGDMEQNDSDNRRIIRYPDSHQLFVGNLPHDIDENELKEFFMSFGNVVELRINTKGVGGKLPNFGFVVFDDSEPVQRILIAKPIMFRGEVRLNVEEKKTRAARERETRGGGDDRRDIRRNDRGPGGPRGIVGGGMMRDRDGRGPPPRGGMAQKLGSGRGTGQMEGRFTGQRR
UniProt Q9UPT5: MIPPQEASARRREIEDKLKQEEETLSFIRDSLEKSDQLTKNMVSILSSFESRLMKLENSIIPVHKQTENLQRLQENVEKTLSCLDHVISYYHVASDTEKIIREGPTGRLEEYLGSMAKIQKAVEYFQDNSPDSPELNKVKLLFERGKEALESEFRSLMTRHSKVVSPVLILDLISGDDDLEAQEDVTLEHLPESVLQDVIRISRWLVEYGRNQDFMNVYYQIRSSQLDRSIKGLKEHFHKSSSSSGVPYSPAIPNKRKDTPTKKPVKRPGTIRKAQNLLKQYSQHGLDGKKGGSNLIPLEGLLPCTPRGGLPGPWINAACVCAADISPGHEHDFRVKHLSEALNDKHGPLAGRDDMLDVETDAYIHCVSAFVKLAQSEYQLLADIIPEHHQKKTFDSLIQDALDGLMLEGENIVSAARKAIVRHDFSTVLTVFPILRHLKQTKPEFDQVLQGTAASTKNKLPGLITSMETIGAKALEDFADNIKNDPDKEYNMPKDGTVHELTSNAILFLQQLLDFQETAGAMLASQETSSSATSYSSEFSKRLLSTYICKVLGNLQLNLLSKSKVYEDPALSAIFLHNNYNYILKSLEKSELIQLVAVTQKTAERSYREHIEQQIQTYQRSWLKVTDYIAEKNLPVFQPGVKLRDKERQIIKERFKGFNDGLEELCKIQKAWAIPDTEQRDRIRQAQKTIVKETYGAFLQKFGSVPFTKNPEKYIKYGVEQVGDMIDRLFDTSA

Compound: CN[C@@H]1C[C@H]2O[C@@](C)([C@@H]1OC)n1c3ccccc3c3c4c(c5c6ccccc6n2c5c31)C(=O)NC4 [staurosporine]
Experiment: log2 fold change of tryptic peptide abundance, ligand vs vehicle (limited proteolysis) (log2 ratio); higher = more trypsin-susceptible (destabilized)
Details: ligand concentration: 20 uM; sample: K562 cleared lysate; digestion: 4 min, 22 C (HT-PELSA RT4min, Orbitrap Astral)

Row | Target | log2 fold change
1 | MRPS17 (peptide sequence: LVLDPYLLK, peptide start residue: 33) (UniProt Q9Y2R5) | 0.137
2 | INPP5F (peptide sequence: DHYILQQGER, peptide start residue: 8) (UniProt Q9Y2H2) | 0.258
3 | UniProt Q9Y2B5 (peptide sequence: QMMENLVIAK, peptide start residue: 188) | 0.461
4 | SATB2 (peptide sequence: MQHVVQLPPEPVQVLHR, peptide start residue: 568) (UniProt Q9UPW6) | 0.213
5 | DERA (peptide sequence: YAAYHDLPMS, peptide start residue: 309) (UniProt Q9Y315) | -0.38
6 | CDYL (peptide sequence: NSQLFAASQK, peptide start residue: 163) (UniProt Q9Y232) | -0.168
7 | REXO2 (peptide sequence: IIENGENEK, peptide start residue: 226) (UniProt Q9Y3B8) | -0.0834
8 | ZDHHC8 (peptide sequence: TSPPTPAMYK, peptide start residue: 347) (UniProt Q9ULC8) | 0.582
9 | UniProt Q9Y2E4 (peptide sequence: TCVVVAEERPR, peptide start residue: 1281) | -0.0303
10 | CHKB (peptide sequence: AAEATAVAGSGAVGGCLAK, peptide start residue: 2) (UniProt Q9Y259) | -0.378
11 | MYO6 (peptide sequence: GWWYAHFDGPWIAR, peptide start residue: 1200) (UniProt Q9UM54) | -0.328
12 | SLC12A4 (peptide sequence: GIDYYDR, peptide start residue: 58) (UniProt Q9UP95) | -0.18
13 | NCKAP1 (peptide sequence: TSFDKPDQMAALFKR, peptide start residue: 882) (UniProt Q9Y2A7) | 0.327
14 | AMDHD2 (peptide sequence: GAHPEAHLR, peptide start residue: 153) (UniProt Q9Y303) | 0.277
15 | AKAP11 (peptide sequence: SLQPSSQNHR, peptide start residue: 1510) (UniProt Q9UKA4) | 0.295
16 | UniProt Q9ULR5 (peptide sequence: SKEDQGLSGHDEK, peptide start residue: 15) | -0.232
17 | UniProt Q9UPN7 (peptide sequence: VMGILINRK, peptide start residue: 127) | 0.435
18 | UniProt Q9ULE0 (peptide sequence: ERLEEELR, peptide start residue: 305) | 0.097
19 | MTMR6 (peptide sequence: CGQLDGDPK, peptide start residue: 383) (UniProt Q9Y217) | 0.496
20 | CEP164 (peptide sequence: IDSTPSLTSR, peptide start residue: 1250) (UniProt Q9UPV0) | -0.39
21 | UniProt Q9UKV0 (peptide sequence: IQSIWSR, peptide start residue: 682) | -0.241
22 | ACOT9 (peptide sequence: KQGIFHIHEVR, peptide start residue: 31) (UniProt Q9Y305) | -0.456
23 | G3BP2 (peptide sequence: FYVHNDMFR, peptide start residue: 124) (UniProt Q9UN86) | -0.52
24 | PRPF19 (peptide sequence: KVTSVVFHPSQDLVFSASPDATIR, peptide start residue: 266) (UniProt Q9UMS4) | -0.219
25 | EXOC7 (peptide sequence: SYREHIEQQIQTYQR, peptide start residue: 607) (UniProt Q9UPT5) | 0.306
26 | COPS3 (peptide sequence: QLSAQGQMTQLCELINK, peptide start residue: 14) (UniProt Q9UNS2) | 0.7
27 | PRR12 (peptide sequence: GGETPEGLATSVVHYGAGAK, peptide start residue: 735) (UniProt Q9ULL5) | 0.257
28 | PPM1H (peptide sequence: VHDSNIYIKPFLSSAPEVR, peptide start residue: 399) (UniProt Q9ULR3) | 0.424

Reformatted as tab-separated lines: part of the list above
Row	Target	log2 fold change
2	INPP5F (peptide sequence: DHYILQQGER, peptide start residue: 8) (UniProt Q9Y2H2)	0.258
8	ZDHHC8 (peptide sequence: TSPPTPAMYK, peptide start residue: 347) (UniProt Q9ULC8)	0.582
15	AKAP11 (peptide sequence: SLQPSSQNHR, peptide start residue: 1510) (UniProt Q9UKA4)	0.295
17	UniProt Q9UPN7 (peptide sequence: VMGILINRK, peptide start residue: 127)	0.435
26	COPS3 (peptide sequence: QLSAQGQMTQLCELINK, peptide start residue: 14) (UniProt Q9UNS2)	0.7
28	PPM1H (peptide sequence: VHDSNIYIKPFLSSAPEVR, peptide start residue: 399) (UniProt Q9ULR3)	0.424
